According to patent US8791249B2, “Nucleic acid encoding humanized c-kit antibody” (Amgen Inc., priority 2006, dated 2014):
Some of these results come from one statement about several compounds together.

Test: Preliminary PK study after single IV or SC administration
Settings: based on AUC0-tlast, single IV or SC 3 mg/kg

## hSR-1 aIgG1: Humanized anti-c-Kit aglycosylated IgG1 antibody; kappa light chain SEQ ID NO: 2, heavy chain SEQ ID NO: 4
  serum clearance: ≤ 7.2 mL/day/kg
